In PubChem BioAssay AID540303 (National Center for Advancing Translational Sciences (NCATS), 2011):
The campaign covered roughly 330,000 compounds. About 1,000 (0.3%) were called active. Inconclusive results, whose numbers are uncertain, are shown with a selection of clear calls. The call rests on the fitted dose curve; in most records, active means well fitted inhibition curve with a large enough effect; inconclusive means small, poorly fitted or top-dose-only effect; inactive means no such curve, though single readings can be large or run the other way; tested in mouse RAW 264.7 cells. Potencies of inconclusive entries are doubtful fits and often do not repeat.

Test: qHTS for Inhibitors of Cell Surface uPA Generation; further: nearly all actives have a fitted effect of over 55% in size
Settings: cell surface uPA generation assay; series mostly up to 38.3 µM
Summary of the method: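 RAW 264.7 cells, 4000/well, given compound (1:5 dilutions, up to 38.3 uM final) and incubated 24 h at 37 C. Blocked uPA-dependent LF entry keeps ATP high; ATPlite luminescence read, 5 s exposure.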
Potency means the concentration at half of the fitted maximal effect.

Structure (SMILES) | Potency
COc1cc(C2C(C(=O)C(C)(C)C)=C(O)C(=O)N2Cc2ccccc2)ccc1O (configuration not stated) | inconclusive: 0.0079 µM [inhibitor, full curve, poor fit]
CN(Cc1ccco1)C(=O)CSc1nn2c(=O)c(C(C)(C)C)nnc2s1 | inconclusive: 14.1 µM [inhibitor, single point]
O=S1(=O)c2ccc(Br)cc2N2CC[C@H](C2)N1Cc1ccc(Cl)cc1 | active: 3.16 µM
CCOc1c(OC)cccc1C1CC(=O)Nc2cc3c(cc21)OCCO3 (configuration not stated) | inconclusive: 11.2 µM [inhibitor, single point]
COc1ccc(-[n+]2c(C)cc(/C=C3\Sc4ccccc4N3C)cc2C)cc1 | inconclusive: 2.24 µM [inhibitor, full curve, poor fit]
CCc1cc(Cn2nc(-c3ccccc3)cc2C(=O)NCc2cccs2)on1 | inconclusive: 12.6 µM [inhibitor, single point]
CCOC(=O)C1=CN(Cc2ccco2)S(=O)(=O)N(C)C1c1ccccc1 (configuration not stated) | inconclusive: 28.2 µM [inhibitor, single point]
Cc1ccc(C(C)C)c(Oc2nnnn2-c2ccccc2)c1 | inconclusive: 10 µM [inhibitor, partial curve]
Cc1nc(SC(C)C(=O)NC2CCCC2)c2ccccc2n1 (configuration not stated) | inconclusive: 10 µM [inhibitor, partial curve, poor fit]
COc1ccc(CN(C(=O)c2ccc3c(c2)OCCO3)C(C(=O)NC2CCCCC2)c2ccc3ncccc3c2)cc1 (configuration not stated) | inactive
CSc1nc(-c2ccccc2)c(C#N)c(=O)[nH]1 | inactive
CCOCCCNC(=O)CN1C(=O)/C(=C/c2ccccc2C)Sc2ccccc21 | inconclusive: 10 µM [inhibitor, partial curve, poor fit]
CN(C)c1nc(N)c([N+](=O)[O-])c(NCC2CCCO2)n1 (configuration not stated) | inactive
COc1ccc(Nc2ncc(F)c(N3CCOCC3)n2)cc1 | inconclusive: 12.6 µM [inhibitor, single point]
O=C(CN1C(=O)c2ccccc2C1=O)OCc1nc2ccsc2c(=O)[nH]1 | inconclusive: 1.41 µM [inhibitor, full curve, poor fit]
O=[N+]([O-])c1ccc(F)cc1OCc1cccc(S(=O)(=O)N2CCOCC2)c1 | inactive
O=C(Nc1ccc(N2CCCC(O)C2)cc1)c1snc2c(=O)[nH]cnc12 (configuration not stated) | inconclusive: 4.47 µM [inhibitor, partial curve]
CC(C)N(C(=O)[C@H]1C[C@H](CC(=O)NCCc2ccccn2)C(=O)N2CCc3c([nH]c4cc(CCC(=O)N(C)C)ccc34)[C@]12C)C(C)C | inactive
CCOc1ccc(C(C)=O)cc1CN1C(=O)C(=O)N(CC)C1=O | inactive
Cc1cccc(C)c1NC(=O)CN1CCN(CCCC(c2ccc(F)cc2)c2ccc(F)cc2)CC1 | inconclusive: 10 µM [inhibitor, single point]
COC(=O)c1scc(C)c1NC(=O)C(Cl)c1ccccc1 (configuration not stated) | inconclusive: 4.47 µM [inhibitor, partial curve, poor fit]
Cc1cccc(C2CN(C)CCc3c2cc(O)c(O)c3Cl)c1 (configuration not stated) | inconclusive: 6.31 µM [inhibitor, partial curve]
C(=N\Nc1nc2ccccc2[nH]1)/c1ccc2c(c1)OCCO2 | inconclusive: 7.94 µM [inhibitor, partial curve, poor fit]

Structure (SMILES) | Potency
COc1ccc(N(CC(=O)NCc2ccco2)C(=O)CCC(=O)Nc2nccs2)c(OC)c1 | inactive
CC[C@@H](Nc1ncnc2c1oc1ccccc12)C(=O)O | inconclusive: 0.316 µM [inhibitor, full curve, poor fit]
Cc1cc(C)c2c(NC(=O)CCl)nn(C)c2n1 | inconclusive: 10 µM [inhibitor, partial curve, poor fit]
O=C(Cc1ccc(Cl)cc1)Nc1cccnc1 | inconclusive: 28.2 µM [inhibitor, single point]
COC(=O)c1cc(NC(=O)c2cc(C(C)(C)C)nn2Cc2ccc(F)cc2)ccc1N1CCOCC1 | inconclusive: 5.62 µM [inhibitor, partial curve, poor fit]
COc1ccc(CNC(=O)CC2C[C@H](C(=O)N3CCOCC3)[C@@]3(CCC4CCCC4)c4[nH]c5ccccc5c4CCN3C2=O)cc1OC (some centres not stated) | inconclusive: 28.2 µM [inhibitor, single point]
CCOC(=O)c1[nH]c2c(c1C)C(=O)CC(c1ccc(N(C)C)cc1)C2 (configuration not stated) | inconclusive: 14.1 µM [inhibitor, single point]
CCN(CC)c1ccc(C(=O)N/N=C/c2ccccc2OC(F)F)cc1 | inconclusive: 28.2 µM [inhibitor, single point]
CNC[C@@H](Cc1ccccc1)NC[C@@H](CC1CCCCC1)NCCCc1ccccc1 | inconclusive: 12.6 µM [inhibitor, single point]
Cc1nc(N=Nc2ccc(O)cc2)n[nH]1 | inconclusive: 5.62 µM [inhibitor, partial curve, poor fit]
COc1ccccc1NC(=O)CSc1nncs1 | inactive
CC(=O)Nc1ccc(S(=O)(=O)c2c(N)n(CCN3CCOCC3)c3nc4ccccc4nc23)cc1 | inactive
Cn1c(COc2ccccc2Br)nc2ccccc21 | inconclusive: 12.6 µM [inhibitor, partial curve, poor fit]
COc1ccc(-c2nc(-c3cccnc3)no2)cc1 | inconclusive: 10 µM [inhibitor, partial curve, poor fit]
CCN1CCN(c2nc(Nc3cccc(OC)c3)nc(N)c2[N+](=O)[O-])CC1 | inconclusive: 3.16 µM [inhibitor, partial curve, poor fit]
COc1ccc(N2CCN(C(=O)CN(CCc3ccccc3)S(C)(=O)=O)CC2)cc1 | inactive
O=C(C1=C[C@@H](c2ccc(Br)cc2)C[C@@H](OCc2ccc(CO)cc2)O1)N1CCN(Cc2ccc3c(c2)OCO3)CC1 | inconclusive: 12.6 µM [inhibitor, single point]
CC1CCN(CCCNC(=O)c2cc3c(=O)n(C)c4ccccc4c3n2C)CC1 | inconclusive: 12.6 µM [inhibitor, partial curve]
COCCn1c(C)cc(C(=O)CSc2ccc3ccccc3n2)c1C | inactive
Cc1ccc(-n2nnc(-c3nccn3C)n2)cc1 | active: 3.16 µM
COc1ccccc1NC(=O)NNC(=O)COc1ccc2ccccc2c1 | inactive
CC(C)c1ccc(/C=N/N2CCCCC2)cc1 | inactive
CCCC(C(=O)NC1=NCCS1)c1ccccc1 (configuration not stated) | inactive

Among those listed so far, 3 contain bromine.
Structure (SMILES) | Potency
O=S1(=O)c2ccc(Br)cc2N2CC[C@H](C2)N1Cc1ccc(Cl)cc1 | active: 3.16 µM
Cn1c(COc2ccccc2Br)nc2ccccc21 | inconclusive: 12.6 µM [inhibitor, partial curve, poor fit]
O=C(C1=C[C@@H](c2ccc(Br)cc2)C[C@@H](OCc2ccc(CO)cc2)O1)N1CCN(Cc2ccc3c(c2)OCO3)CC1 | inconclusive: 12.6 µM [inhibitor, single point]

In a second layout: entries from further up
CC[C@@H](Nc1ncnc2c1oc1ccccc12)C(=O)O
  Potency: inconclusive: 0.316 µM [inhibitor, full curve, poor fit]
Cn1c(COc2ccccc2Br)nc2ccccc21
  Potency: inconclusive: 12.6 µM [inhibitor, partial curve, poor fit]

Remaining list, next part

Structure (SMILES) | Potency
Cc1ccc2nc(-c3cccnc3)c(NC3CCCCC3)n2c1 | inactive
COc1ccc(OC)c(C(=O)N2CCC(n3nccc3NC(=O)CC(C)C)CC2)c1 | inconclusive: 1.78 µM [inhibitor, full curve]
COc1ccccc1/C=C/C=N/n1c(-c2n[nH]c3c2CCC3)n[nH]c1=S | inconclusive: 8.91 µM [inhibitor, partial curve, poor fit]
N#CCCCN1C(=O)C(=C(C#N)C#N)c2ccccc21 | inactive
CC(=O)Nc1nnc(S(=O)(=O)N2CCN(c3ccc(Cl)cc3[N+](=O)[O-])CC2)s1 | inactive
COc1ccc(/[N+]([O-])=C/c2ccco2)cc1 | inconclusive: 12.6 µM [inhibitor, partial curve, poor fit]
Cc1ccc(-n2nc3c(=O)n(CCCC(=O)NCc4cccc(F)c4)nc(C)c3c2C)cc1 | inconclusive: 0.708 µM [inhibitor, partial curve, poor fit]
CC1CCCCN1C(=O)CSc1nnc(-c2cccnc2)o1 (configuration not stated) | inactive
COc1ccc(N2CCN(C(=O)COC(=O)c3ccco3)CC2)cc1 | inconclusive: 3.16 µM [inhibitor, single point]
O=C(CSc1nnc(NC(=O)c2cccc(Cl)c2)s1)NCC1CCCO1 (configuration not stated) | inconclusive: 8.91 µM [inhibitor, partial curve, poor fit]
Cc1cccc(N2CN=c3s/c(=C\c4ccccn4)c(=O)n3C2)c1 | inactive
COCCNC(=S)N1CCC(c2nc(-c3ccc(N(C)C)cc3)no2)CC1 | inconclusive: 3.16 µM [inhibitor, full curve, poor fit]
Cc1cc(/C=N/n2cnnc2)c(C)n1-c1ccc(OCc2ccc(F)cc2)cc1 | inconclusive: 8.91 µM [inhibitor, single point]
COc1ccc(NC(=O)CN(CC(=O)Nc2ccc(OC)cc2)C(C)(C)CO)cc1 | inconclusive: 10 µM [inhibitor, single point]
O=C1CCCC(O)=C1Sc1ccccc1C(=O)O | inactive
COC(=O)c1ccccc1N=Nc1c(C)n[nH]c1C | inconclusive: 12.6 µM [inhibitor, partial curve, poor fit]
CCN(C[C@H]1N[C@@](Cc2ccccc2)(C(=O)OC)[C@H]2C(=O)N(Cc3ccccc3)C(=O)[C@@H]12)C(=O)Nc1ccc(Cl)cc1 | inconclusive: 28.2 µM [inhibitor, single point]
Cc1cc2c(cc1C)CN(c1ccccc1)C2 | inconclusive: 11.2 µM [inhibitor, partial curve, poor fit]
N=c1n(CC(=O)c2ccc(Br)s2)c2ccccc2n1Cc1ccccc1 | inconclusive: 22.4 µM [inhibitor, single point]
O=C(OCC(=O)N(Cc1ccccc1)Cc1ccccc1)c1ccccc1NCCO | inactive
COc1ccc(C#Cc2c(C=O)n(C)c3ccccc23)cc1 | inconclusive: 12.6 µM [inhibitor, single point]
